Assay results published in patent US20080176339A1, “NEUTRAL LABELING REACTANTS AND CONJUGATES DERIVED THEREOF” (WALLAC OY, priority 2006, published 2008).

System: antiserum
Assay: Performance of thyroxine tracers in DELFIA based T4-assay compared to AutoDELFIA Neonatal T4 kit
Conditions: for Interference with EDTA: EDTA-containing samples; for Analytical sensitivity: optimized standard curve; for Correlation to AutoDelfia Neonatal T4 assay, R: small sample panel, n = 27; for Mean Bias: versus AutoDELFIA Neonatal T4 assay
Protocol: The assay concentrations of the antiserum were optimized for each tracer individually, and the analytical sensitivities of the optimized standard curves were defined. The correlation between the methods were studied with a small sample panel. The on-board stability was tested up to one week in instrument-like conditions. Sensitivity to the interference of EDTA-containing samples was also studied.

SMILES | Interference with EDTA | Analytical sensitivity | Correlation to AutoDelfia Neonatal T4 assay, R | Mean Bias
NC(=O)CN(CCN(CC(=O)O)CC(Cc1ccc(NC(=S)NCCCCCC(=O)NC(Cc2cc(I)c(Oc3cc(I)c(O)c(I)c3)c(I)c2)C(=O)O)cc1)N(CC(N)=O)CC(=O)O)CC(=O)O (centres unmarked) [Compound 13] | No | 0.42 μL/dL | R = 0.87, n = 27 | −0.7%
O=C(O)CN(CCN(CC(=O)O)CC(Cc1ccc(NC(=S)NCCCCCC(=O)NC(Cc2cc(I)c(Oc3cc(I)c(O)c(I)c3)c(I)c2)C(=O)O)cc1)N(CC(=O)O)CC(=O)O)CC(=O)O (centres unmarked) [Compound T4-DTPA] | No | 0.35 μL/dL | R = 0.94, n = 27 | −0.1%
